Laboratory results from paper PMC9769502 (Microbiology Spectrum, 2022).

Tested on: Leishmania donovani intracellular amastigotes
Experiment: Intracellular leishmanicidal activity in infected THP-1 macrophages
Type: cell-based
Conditions: selectivity index = mean THP-1 CC50 / intracellular amastigote IC50

First: AGKEKIRQYLKNEIKKKGRKAVWAW [Syn-safencin 77]
Second: AGKETIRKYLKNEIKKKGRKAVIAW [Syn-safencin 6]
The “Intracellular amastigotes SI” value of the first is higher: 12.59 for the first, 6.74 for the second.

Compared with “AGKETIRKYLKNEIKKKGRKAVWAW [Syn-safencin 78]”, “AGKETIRQKLKNEIKKKGRKAVIAW [Syn-safencin 7]” is higher in “Intracellular amastigotes SI” value: 5.14 for the first, 9.82 for the second.

Going from “AGKETIRQYLKNEIKKKGRKAVWAW [Syn-safencin 73]” to “AGKKTIRQYLKNEIKKKGRKAVIWW [Syn-safencin 82]”, the “Intracellular amastigotes SI” value rises from 5.97 to 19.55.

In the case of “AWKETIFQRLKKKIQEKGKRATIAW [Syn-larvacin 35]”, the “Intracellular amastigotes SI” value is reported as 0.85.

No end group written: not given here.
